Measurements published in patent US20220064302A1.
Results are given in words; binding and its absence hold for the method and conditions named. Some results given as binding are weak or reduced against the parent protein; the word gives no strength.

Sequences of proteins named here, by UniProt entry; tags and fusion partners are left off. A change or cut given only in a name is not applied to a line headed by its entry.
UniProt Q15116: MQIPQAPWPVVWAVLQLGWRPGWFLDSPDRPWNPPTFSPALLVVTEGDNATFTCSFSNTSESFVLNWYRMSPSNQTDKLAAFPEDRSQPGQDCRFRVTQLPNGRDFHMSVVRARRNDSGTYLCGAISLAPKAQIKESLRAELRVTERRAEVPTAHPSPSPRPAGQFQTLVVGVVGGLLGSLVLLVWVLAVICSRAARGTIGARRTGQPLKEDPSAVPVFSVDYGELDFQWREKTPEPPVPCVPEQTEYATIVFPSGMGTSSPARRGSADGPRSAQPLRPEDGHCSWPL

B1: A3 (antibody, V domains shown)
VH: QVQLVESGGGEVQPGRSLRLSCAASGFTFSDYGMHWVRQAPGKGLEWVAVIWYDGSNKYYADSVKGRFTISRDNSKNTLYLQMNSLRAEDTAVYYCAGGGSYWGDYWGQGTLVTVSS
VL: DIQMTQSPSSLSASVGDRVTITCRASQGIRNELGWYQQKPGKAPKRLIYAASSLQSGVPSRFSGSGSGTEFTLTISSLQPEDFATYYCLQHYIYPWTFGQGTKVEIKR
B2: A20 (antibody, V domains shown)
VH: EVQLVESGGGLVQPGGSLRLSCAASGFTFSFYDMHWVRQAKGKGLEWVSAIGTAGDTYYPGSVKGRFTISRENAKNSLYLQMNSLRAGDTAVYYCARGYCSTTNCFADYFDYWGQGTLVTVSS
VL: DIQLTQSPSFLSASVGDRVTITCRASQGISNYLAWYQQKPGKAPKLLIYAASTLQSGVPSRFSGSGSGTEFTLTISSLQPEDFATYYCHQLNSFPLTFGGGTKVEIK
B3: A19 (antibody, V domains shown)
VH: QVQLVESGGGVVQPGRSLRLSCAASGFTFSNYGMYWVRQAPGKGLEWVAVIWYDGSNKYYADSVKGRFTISRDNSKNTLYLQMNSLRAEDTAVYYCAGGGDILTGDYWGQGTLVTVSS
VL: DIQMTQSPSSLSASVGDRVTITCRASQGIRNDLGWYQQKPGKAPKRLIYAASSLQSGVPSRFSGSGSGTEFTLTISSLQPEDFATYYCLQYKSYLYTFGQGTKLEIK

Biological target: PD-1 expressed on cells (human) (UniProt Q15116)
Assay: flow cytometry on PD-1 expressing Flp-In CHO cells

binding, binds:
B1, B2, B3
